Assay results published in publication PMC12629989.
These are yes or no findings as the source states them, for the method shown. Binding seen in cells or lysates may run through a third protein. Some entries that bind do so weakly or less than the wild type.

Experiments:
[1] = target: T1, Z-DNA-binding protein 1 (mouse (endogenous in MEFs)), Q9QY24; assay: co-IP; anti-ZBP1 antibody on G-Sepharose beads, lysates of immortalized Mlkl-/-, Fadd-/-Mlkl-/- and Casp8-/-Mlkl-/- MEFs, basal or treated with DMXAA, C-178, TNF, Z-VAD-FMK and BV6 for 48 h; overnight at 4 °C; washes with 150 mM NaCl, Tris-HCl pH 7.4, 5% glycerol, 0.5% Triton X-100; immunoblot; conditions: remark: other sources report otherwise
T1 chain: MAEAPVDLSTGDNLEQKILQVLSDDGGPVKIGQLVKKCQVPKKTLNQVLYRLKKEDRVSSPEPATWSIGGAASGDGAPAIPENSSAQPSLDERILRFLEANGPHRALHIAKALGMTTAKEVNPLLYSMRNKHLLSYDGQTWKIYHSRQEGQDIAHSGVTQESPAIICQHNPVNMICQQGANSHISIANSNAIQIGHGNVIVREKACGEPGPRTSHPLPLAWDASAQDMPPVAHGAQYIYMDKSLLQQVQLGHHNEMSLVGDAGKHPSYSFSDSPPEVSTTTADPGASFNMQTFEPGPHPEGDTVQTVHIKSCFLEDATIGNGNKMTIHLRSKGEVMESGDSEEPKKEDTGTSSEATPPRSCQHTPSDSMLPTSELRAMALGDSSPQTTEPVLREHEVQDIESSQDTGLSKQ

[2] = target: T2, FAS-associated death domain protein (mouse (endogenous in MEFs)), Q61160; assay: co-IP; anti-FADD antibody on G-Sepharose beads, lysates of immortalized Mlkl-/- MEFs pretreated with or without DMXAA overnight, then TNF (100 ng/ml), Z-VAD-FMK (20 uM) and BV6 (2 uM) for 48 h; overnight at 4 °C; washes with 150 mM NaCl, Tris-HCl pH 7.4, 5% glycerol, 0.5% Triton X-100; immunoblot; conditions: remark: other sources report otherwise
T2 chain: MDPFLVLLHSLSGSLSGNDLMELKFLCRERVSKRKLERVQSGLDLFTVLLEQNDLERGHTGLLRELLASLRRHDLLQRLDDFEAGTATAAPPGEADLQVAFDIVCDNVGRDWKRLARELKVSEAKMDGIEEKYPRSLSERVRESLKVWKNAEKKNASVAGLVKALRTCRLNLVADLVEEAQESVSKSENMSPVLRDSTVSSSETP

B1: receptor-interacting serine/threonine-protein kinase 1, Q60855 1-656 (protein)
chain: MQPDMSLDNIKMASSDLLEKTDLDSGGFGKVSLCYHRSHGFVILKKVYTGPNRAEYNEVLLEEGKMMHRLRHSRVVKLLGIIIEEGNYSLVMEYMEKGNLMHVLKTQIDVPLSLKGRIIVEAIEGMCYLHDKGVIHKDLKPENILVDRDFHIKIADLGVASFKTWSKLTKEKDNKQKEVSSTTKKNNGGTLYYMAPEHLNDINAKPTEKSDVYSFGIVLWAIFAKKEPYENVICTEQFVICIKSGNRPNVEEILEYCPREIISLMERCWQAIPEDRPTFLGIEEEFRPFYLSHFEEYVEEDVASLKKEYPDQSPVLQRMFSLQHDCVPLPPSRSNSEQPGSLHSSQGLQMGPVEESWFSSSPEYPQDENDRSVQAKLQEEASYHAFGIFAEKQTKPQPRQNEAYNREEERKRRVSHDPFAQQRARENIKSAGARGHSDPSTTSRGIAVQQLSWPATQTVWNNGLYNQHGFGTTGTGVWYPPNLSQMYSTYKTPVPETNIPGSTPTMPYFSGPVADDLIKYTIFNSSGIQIGNHNYMDVGLNSQPPNNTCKEESTSRHQAIFDNTTSLTDEHLNPIRENLGRQWKNCARKLGFTESQIDEIDHDYERDGLKEKVYQMLQKWLMREGTKGATVGKLAQALHQCCRIDLLNHLIRASQS
B1 was tested, and the binding [1] was “binds”.

B2: receptor-interacting serine/threonine-protein kinase 3, Q9QZL0 1-486 (protein)
chain: MSSVKLWPTGASAVPLVSREELKKLEFVGKGGFGVVFRAHHRTWNHDVAVKIVNSKKISWEVKAMVNLRNENVLLLLGVTEDLQWDFVSGQALVTRFMENGSLAGLLQPECPRPWPLLCRLLQEVVLGMCYLHSLNPPLLHRDLKPSNILLDPELHAKLADFGLSTFQGGSQSGSGSGSGSRDSGGTLAYLDPELLFDVNLKASKASDVYSFGILVWAVLAGREAELVDKTSLIRETVCDRQSRPPLTELPPGSPETPGLEKLKELMIHCWGSQSENRPSFQDCEPKTNEVYNLVKDKVDAAVSEVKHYLSQHRSSGRNLSAREPSQRGTEMDCPRETMVSKMLDRLHLEEPSGPVPGKCPERQAQDTSVGPATPARTSSDPVAGTPQIPHTLPFRGTTPGPVFTETPGPHPQRNQGDGRHGTPWYPWTPPNPMTGPPALVFNNCSEVQIGNYNSLVAPPRTTASSSAKYDQAQFGRGRGWQPFHK
For B2, the binding [2] was “binds”.
